For assay [1], the target named is T1, TRAF6 full length (Flag-tagged copy and Myc-tagged copy) (mouse), P70196.
T1 chain: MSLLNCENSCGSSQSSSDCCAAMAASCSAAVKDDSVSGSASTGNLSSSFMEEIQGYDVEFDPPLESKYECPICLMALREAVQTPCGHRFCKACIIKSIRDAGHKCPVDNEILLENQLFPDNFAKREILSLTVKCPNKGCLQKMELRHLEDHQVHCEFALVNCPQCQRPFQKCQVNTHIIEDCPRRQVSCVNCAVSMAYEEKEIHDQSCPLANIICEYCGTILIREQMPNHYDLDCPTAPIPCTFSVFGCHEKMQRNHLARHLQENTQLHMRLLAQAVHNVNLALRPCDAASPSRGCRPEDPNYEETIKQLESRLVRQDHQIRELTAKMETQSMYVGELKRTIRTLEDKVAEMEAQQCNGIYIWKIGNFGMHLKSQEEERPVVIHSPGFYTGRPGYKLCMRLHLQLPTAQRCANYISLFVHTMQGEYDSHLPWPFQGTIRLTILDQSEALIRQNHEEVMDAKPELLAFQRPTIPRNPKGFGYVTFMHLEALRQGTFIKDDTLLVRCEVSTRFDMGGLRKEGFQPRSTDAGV
The assay is described as follows: co-IP; Flag-tagged TRAF6 or mutants co-transfected with Myc-tagged TRAF6 into HEK293T; immunoprecipitation with anti-Myc (Fig. 5b) or by the Flag-tagged protein (Supplementary Fig. 4b, 5d); immunoblot; lysis buffer A (20 mM Tris-HCl pH 7.4, 150 mM NaCl, 0.5% NP-40, 10% glycerol). To be noted: remark: other sources report otherwise.

In assay [2] the target is T2, TRAF6 full length (Flag-tagged copy and Myc-tagged copy) (mouse) (UniProt P70196).
T2 sequence: T1 chain
The description is as above.

Assay [3] concerns the target T3, MBP-TRAF6-Flag (mouse), P70196.
T3 chain: T1 chain
The assay is described as follows: native gel or EMSA; proteins purified on anti-Flag M2 magnetic beads, eluted, resolved on 10% native gel, immunoblot with Flag antibody; both purified. The note with it: remark: other sources report otherwise. A general note: Mobility shift assays separate free from complexed probe on a gel.

In assay [4] the target is T4, TRAF6 mutant M3 (I307A, L310A, I342A, L345A), Flag-tagged (mouse) (UniProt P70196).
T4 sequence: T1 chain with I307A, L310A, I342A, L345A
The assay is described as follows: co-IP; Flag-tagged TRAF6 or mutants co-transfected with Myc-tagged TRAF6 into HEK293T; immunoprecipitation with anti-Myc (Fig. 5b) or by the Flag-tagged protein (Supplementary Fig. 4b, 5d); immunoblot; lysis buffer A (20 mM Tris-HCl pH 7.4, 150 mM NaCl, 0.5% NP-40, 10% glycerol). For orientation: A western blot detects proteins with antibodies after separation by electrophoresis.

Assay [5] has as its target T5, TRAF6 mutant M5 (deletion of amino acids 313-319), Flag-tagged (mouse) (UniProt P70196).
T5 sequence: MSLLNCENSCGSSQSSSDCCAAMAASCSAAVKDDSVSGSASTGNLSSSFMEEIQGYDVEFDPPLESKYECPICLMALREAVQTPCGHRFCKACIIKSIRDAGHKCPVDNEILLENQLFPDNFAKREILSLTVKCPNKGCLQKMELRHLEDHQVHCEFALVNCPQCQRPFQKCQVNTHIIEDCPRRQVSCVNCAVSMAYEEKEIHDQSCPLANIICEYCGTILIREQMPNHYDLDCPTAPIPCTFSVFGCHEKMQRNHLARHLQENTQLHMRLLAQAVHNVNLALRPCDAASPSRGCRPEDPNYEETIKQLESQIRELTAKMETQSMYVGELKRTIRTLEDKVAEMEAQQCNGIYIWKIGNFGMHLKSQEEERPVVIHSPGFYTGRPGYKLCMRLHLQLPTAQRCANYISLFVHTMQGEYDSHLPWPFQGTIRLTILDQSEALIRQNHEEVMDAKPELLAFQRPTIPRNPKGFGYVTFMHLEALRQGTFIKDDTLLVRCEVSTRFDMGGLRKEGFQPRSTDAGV
The assay is described as above.

For assay [6], the target named is T6, TRAF6 mutant M4 (V315A, R316A, H319A), Flag-tagged (mouse) (UniProt P70196).
T6 sequence: T1 chain with V315A, R316A, H319A
Described as above.

Numbering of substitutions follows the chain as printed. Names may count otherwise. No constants are given. Whether binding was seen depends on the method and setting. For part of these data: Binding seen in cells or lysates may run through a third protein. Some results given as binding are weak or reduced against the parent protein; the word gives no strength. Tags and fused reporters may be left off the sequences shown.

B1: TRAF6 full length (Flag-tagged copy and Myc-tagged copy), P70196-1 1-530 (protein)
chain: T1 chain
Turning to B1, in assay [1], the binding entry was “binds”.

B2: TRAF6 mutant M3 (I307A, L310A, I342A, L345A), Flag-tagged (protein, UniProt P70196-1 1-530)
chain: T1 chain with I307A, L310A, I342A, L345A
As to B2, the binding entry in assay [2] is on record as “binds”.

B3: MBP-TRAF6-Flag, P70196-1 1-530 (protein)
chain: T1 chain
In the case of B3, the binding entry in assay [3] is listed as “binds”.

B4: TRAF6 full length (Flag-tagged copy and Myc-tagged copy) (protein, UniProt P70196-1 1-530)
chain: T1 chain
Consider B4, for which the binding result in assay [4], in assay [5] and in assay [6] was “binds” in each case.

(Values after publication PMC5634496 (Nature Communications, 2017).)
